Measured values reported in PubChem BioAssay AID1794844 (National Center for Advancing Translational Sciences (NCATS), 2023).
Screen size: about 2,800 compounds; fewer than 10 were called active. Roughly 7% stayed inconclusive and do not appear here. Calls come from the whole dose curve; as a rule, active = well fitted inhibition curve with a large enough effect; inconclusive = small, poorly fitted or top-dose-only effect; inactive = no such curve, though single readings can be large or run the other way. The list shows a part of the results.

By UniProt entry, the sequences of proteins in these tests, tags left out. Where a name states a change or a piece, a line headed by the entry shows the natural chain unless it says otherwise.
UniProt C7C422: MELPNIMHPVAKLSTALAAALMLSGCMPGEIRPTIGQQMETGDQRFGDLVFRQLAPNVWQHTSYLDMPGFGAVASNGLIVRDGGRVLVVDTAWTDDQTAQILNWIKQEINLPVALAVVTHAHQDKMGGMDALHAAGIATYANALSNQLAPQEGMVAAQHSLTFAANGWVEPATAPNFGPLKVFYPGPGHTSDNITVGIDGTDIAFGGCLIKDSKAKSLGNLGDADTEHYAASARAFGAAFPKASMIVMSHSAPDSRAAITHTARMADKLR

molecular target: Metallo-beta-lactamase type 2 (Klebsiella pneumoniae) (UniProt C7C422); experiment: qHTS to identify inhibitors of the New Delhi Metallo-beta-lactamase (NDM): Nitrocefin screen against the machine-based learning selections.; note: % of control where 0% means no effect; details: NDM-1 enzyme, nitrocefin hydrolysis, absorbance 485 nm; activity, negative = inhibition: at the top concentration
In short: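 Hydrolysis by 2 nM NDM-1 was followed by absorbance after >30 min compound preincubation in HEPES pH 7.0 buffer with 1 uM Zn2SO4. For nitrocefin (16.7 uM, 15 min, 485 nm) and meropenem (50 uM, 30 min, 300 nm), each substrate ran on separate plates.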

activity, negative = inhibition, inactive:
O=C(c1csc(Cc2ccccc2)n1)N1CCC2(CCNCC2)CC1 -12.8%
N#Cc1cccc(CN2CC[C@H](c3nc4ccccc4[nH]3)C2)c1 1.73% [at 57.5 µM]
CN(Cc1ccsc1)C(=O)c1ccc(C#CC(C)(C)O)o1 3.12%
FC(F)(F)c1ccnc(-c2cc(NCc3ccccn3)nc3[nH]ccc23)c1 -6.4%
COC(=O)C1CCN(CC(O)COc2cccc(CN3CC=C(C)CC3)c2)CC1 (configuration not stated) -5.12%
CC(C)c1cccc(-c2cc(NCc3ccccn3)nc3[nH]ccc23)n1 9.13%
Cc1nnc2n1C(C)CN(C(=O)CCc1nc(-c3ccncc3)no1)C2 (configuration not stated) -5.72%
O=C1Nc2ccc(-c3ccccc3F)cc2C(=O)N2CC[C@H](NS(=O)(=O)c3cccs3)[C@@H]12 2.37%
COC(=O)[C@@H]1Cc2ncn(C)c2CN1C(=O)c1ccc(-c2ccccc2)cc1 -7.88% [at 57.5 µM]
CCn1cc(CN2CCc3ccccc3C2)ccc1=O -6.53%
O=C(Cc1c[nH]c2ncc(-c3ccc(Cl)cc3)cc12)NCc1cccnc1 5.86% [at 57.5 µM]
CC(=O)Nc1ccc(CN2CCN3C(=O)N(Cc4ccc(C)cc4)C[C@H]3C2)cc1 -0.792% [at 57.5 µM]
CCc1cc(=O)n(CC(=O)Nc2cc(OC)cc(OC)c2)c(N2CCOCC2)n1 9.73%
COc1cccc(N2CC(C(=O)NCC(F)(F)F)NC2=O)c1 (configuration not stated) -2.9% [at 57.5 µM]
CC(=O)NC1(C)CCCN(Cc2cc(-c3cccc(C(F)(F)F)c3)cs2)C1 (configuration not stated) 7.14% [at 57.5 µM]
O=C(NCCc1nccc(-c2ccccc2)n1)c1ccc2cccc(F)c2n1 -6.54%
OCCc1ccc(Nc2cnc3ccc(-c4ccc(F)cc4)nn23)cc1 -26.7% [at 57.5 µM]
CC(=O)c1ccc(NC(=O)O[C@@H]2CO[C@H]3[C@@H]2OC[C@@H]3NC(=O)c2ccco2)cc1 -2.97% [at 57.5 µM]
CCn1c(CO)nnc1C1CC(NC(=O)Cc2c[nH]c3ccccc23)C1 (configuration not stated) -7.51%
CNc1ncccc1C(=O)N1CC[C@@H](c2ccc3c(c2)OCO3)[C@H](O)C1 -1.7%
CCOC(=O)C1CCN(Cc2ccccc2OCC(O)CN(C)C2CCCCC2)CC1 (configuration not stated) 2.36%
c1ccc2sc([C@H]3CCN(C4CCC4)C3)nc2c1 0.891% [at 76.7 µM]
CC(=O)Nc1cccc(-c2ccc3ncn(Cc4ccccn4)c(=O)c3n2)c1 -7.79% [at 57.5 µM]
COc1cc2c(cc1CN1CCCC(O)(CN(C)C)C1)OCCCO2 (configuration not stated) 5.15%
COc1ccccc1C(O)c1nc(Nc2ccc(Cl)cc2)n[nH]1 (configuration not stated) 3.08% [at 57.5 µM]
NC(=O)[C@H](Cc1cccs1)NC(=O)C1=C[C@@H](NC(=O)NC2CCCCC2)[C@@H](O)[C@H](O)C1 -3.43%
C=CCC1(CO)CCCN(CCOc2ccc(C)cc2Cl)C1 (configuration not stated) 5.8%
C=CCC1(CO)CCCN(CC(=O)NCCc2ccc(Cl)cc2)C1 (configuration not stated) 0.599%
CNC(=O)Cn1nc(C(=O)N2CCCC(CO)(CC3CC3)C2)cc1C (configuration not stated) 7.56%
COc1ccc(-c2nc(C(C)C)nc3c2CCN(C(=O)C2CCCC2)CC3)cc1 4.96%
CN(C)c1nccnc1OC1CCN(C(=O)CCCc2ccccc2)C1 (configuration not stated) 2.8%
O=C(N[C@H]1CCN2C(=O)c3cc(-c4cccc(C(F)(F)F)c4)ccc3NC(=O)[C@@H]2C1)c1ccncc1 -5.53%
NC(=O)Cc1c[nH]c2ncc(-c3ccc(F)cc3)cc12 31.9% [at 76.7 µM]
COC[C@H]1C[C@@H](NS(C)(=O)=O)[C@H](O)[C@@H]1O -5.51% [at 76.7 µM]
FC(F)(F)c1ccc(N2CCC(N[C@@H]3C[C@@H]4OCC[C@@H]43)CC2)nc1 -13.7%
O=C(NC[C@H]1OC[C@@H](NCc2ccccc2)[C@@H]1O)c1ccccc1 -3.95% [at 57.5 µM]
O=C(c1ccc(CNc2nccc(-c3cccnc3)n2)cc1)N1CCCCC1 -3.79%
COc1ccc(CC(=O)Nc2ccc([C@H]3OCC(=O)N(Cc4scnc4C)[C@@H]3CO)cc2)cc1 -6.82%
O=C(O)C[C@@H]1CCN(S(=O)(=O)c2ccccc2)C[C@@H]1CCN(CCN1CCOCC1)c1ccccc1 -10.4%
CCNC(=O)O[C@@H]1CO[C@H]2[C@@H]1OC[C@@H]2NC(=O)c1ccccn1 27.2% [at 57.5 µM]
CC1=C[C@@H](CNC2CCOCC2)[C@H](C(C)C)C[C@H]1Cc1nc2ccc(Cl)cc2[nH]1 4.72% [at 57.5 µM]
COCCNc1cc(-c2noc([C@@H]3CCCN3Cc3ccccn3)n2)ccn1 4.64% [at 57.5 µM]
COCC1(CNCc2ccc(F)cc2)C[C@@H](O)[C@@H](O)C1 (some centres not stated) -7.25% [at 76.7 µM]
COc1ccc(C(=O)Nc2ccc([C@H]3OCC(=O)N(Cc4cccnc4)[C@@H]3CO)cc2)cc1 1.83%
COCc1cn([C@H]2CO[C@H]3[C@@H]2OC[C@H]3OC(=O)Nc2cccc(C(F)(F)F)c2)nn1 11.4% [at 57.5 µM]
O=C(O)C[C@@H]1CCN(C(=O)c2cccs2)C[C@@H]1CCN1CCN(c2cccc(C(F)(F)F)c2)CC1 -12.2%
CCn1ccc(C(=O)N2CCCC(c3nn(C)c(=O)n3-c3ccccc3)C2)n1 (configuration not stated) 8.71%
NC(=O)Cc1c[nH]c2ncc(-c3cccc(N4CCOCC4)c3)cc12 -5.99% [at 57.5 µM]
C=CCc1cc(C2CC(=O)Nc3[nH]ncc32)cc(OCC)c1OC (configuration not stated) -0.216%
O=C(Nc1ccccc1)c1cnc2c(c1)N(C(=O)Cc1ccc(O)cc1)CCC2 -7.38% [at 57.5 µM]
O=C(Cc1c[nH]c2ncc(-c3ccccc3)cc12)NCc1ccncc1 12.5% [at 57.5 µM]
O=C(N[C@H]1CCN2C(=O)c3cc(-c4ccsc4)ccc3NC(=O)[C@H]12)c1cccc(F)c1 -12.2%
COc1ccc(OC)c(S(=O)(=O)N2C[C@@H](F)C[C@H]2C(=O)N2CCc3ccccc3C2)c1 -4.55%
CSc1cccc(NC(=O)N(C)CC2CCOCC2)c1 0.601%
CCOc1cc(=O)n2c(c1C(=O)N1CCN(c3ccc(F)cc3)CC1)CCCC2 3.65%
COCCNc1ncc(-c2cccc(N[S+](C)(=O)[O-])c2)c2c1OCC2 3.64% [at 57.5 µM]
COC[C@H]1CCCN1Cc1nc(C2(O)CCN(C3CCC3)CC2)cs1 -3.4% [at 57.5 µM]
CC[C@H]1CN(C(=O)Nc2cccc(C(F)(F)F)c2)CC[C@H]1CC(=O)Nc1ccccc1 6.38% [at 57.5 µM]
COc1ccc(-c2cnc3[nH]cc(CC(=O)Nc4cccnc4)c3c2)cc1 28.1% [at 57.5 µM]
Oc1ccccc1CN1CCC(O)(c2csc(CN3CCc4ccccc4C3)n2)CC1 0.811%
Cc1cc(F)ccc1OC1CN(Cc2ccc(F)cc2)C1 -4.35% [at 57.5 µM]
Cc1c(C(=O)N2CCCn3nc(C(C)O)cc3C2)sc2nc[nH]c(=O)c12 (configuration not stated) -5.04%
CC(=O)N1CCC(N2CCOC[C@H]2c2ncc(-c3ccncc3)[nH]2)CC1 -1.2% [at 57.5 µM]
O=C1NCC(c2ccc(Cl)cc2)Cc2[nH]c(-c3ccc(O)cc3)nc21 (configuration not stated) 0.0693%
O=C(O)c1ccccc1C(=O)N[C@H]1CO[C@H]2[C@@H]1OC[C@@H]2n1nnnc1-c1ccc2c(c1)OCO2 0.0904%
c1ccc(-c2nnc3ccc(NC4CCC4)nn23)nc1 2.76% [at 76.7 µM]
O=C(O)C1(CCc2ccccc2)CCCN(c2ncnc3nc[nH]c23)C1 (configuration not stated) -19.3%
O=C(NCCc1ccccn1)C1CCCN(c2nc(-c3ccccc3)nc3c2CCC3)C1 (configuration not stated) 5.53%
COc1ccc(CN2CCOc3ccc(C(=O)NCc4ccc(C)cc4)cc3C2)c(OC)c1 -0.698%
COc1ccc(NC(=O)N[C@H]2CO[C@H]3[C@@H]2OC[C@H]3OC(=O)Nc2ccc(OC)cc2)cc1 54.1%
COc1ccc(CC2(CO)CCN(c3nccc(N)n3)CC2)cc1 -0.629%
C=CCC(=O)N1CCCC1C(=O)Nc1ccc(-c2cccc(OC)c2)cc1 (configuration not stated) 0.991%
N#Cc1cccc(CN2CCC(C3=NC(O)c4cc(F)ccc4N3)CC2)c1 (configuration not stated) 7.06%
NC(=O)Cc1c[nH]c2ncc(-c3ccccc3Oc3ccccc3)cc12 -0.38% [at 57.5 µM]
CCNC(=O)[C@@H]1C[C@H](NC(=O)c2ccccc2)CN1Cc1scnc1C -0.216%
Cc1ccc(S(=O)(=O)N2C[C@@H](C(N)=O)[C@H](C3CCN(C)CC3)C2)cc1Cl -2.75%
CC(C)Oc1ccc(C(=O)N2CCC3(CC2)C(=O)N(C)c2ccccc23)cc1 -6.69%
c1ccc(-c2nnc3ccc(NCc4cccs4)nn23)nc1 7.53% [at 57.5 µM]
OCC1CN(c2ccncn2)CC12CCN(Cc1c[nH]c3ccccc13)CC2 (configuration not stated) 2.83%
COc1ccccc1Nc1ncc2c(n1)CN(C(=O)c1cccc(O)c1)CCN2 -3.99% [at 57.5 µM]
CC(NC(=O)OCc1ccccc1)c1nc2cccnc2n1C1CCCCC1 (configuration not stated) -3.68%
O=C1C[C@@H]2CCN(C(=O)Nc3ccccc3)C[C@@H]2CCN1CCc1cnc[nH]1 14.6% [at 57.5 µM]
O=C1[C@@H]2C[C@@H](O)CN2C2(CN(C3Cc4ccccc4C3)C2)C(=O)N1Cc1ccccc1F -6.47%
Cc1nccc(-c2ccccc2)c1C(=O)N[C@H]1C[C@@H]2OCC[C@H]12 1.16%
C[C@@H](NS(=O)(=O)c1ccccc1)c1onc(-c2cccnc2)c1C(=O)O -7.4% [at 57.5 µM]
O=C(NC[C@H]1OC[C@@H](NC2CCC(F)(F)CC2)[C@@H]1O)C1CC1 -3.47% [at 57.5 µM]
COc1cccc(CN2CC3(C2)C(=O)N(Cc2ccccc2F)C(=O)[C@@H]2C[C@@H](O)CN23)c1 1.92%
COc1ccc(C2(C(=O)N3CCCC(Cc4nc(C5CCOCC5)no4)C3)CC2)cc1 (configuration not stated) 0.154%
CC(C)(C)C(=O)N1C[C@H]2OC(=O)N(CCc3cccc(Cl)c3)[C@H]2C1 8.93%
Cc1ccc2c(c1)nc1n2[C@@H](CNCc2ccc(S(C)(=O)=O)cc2)COC1 -0.905% [at 57.5 µM]
CC(Cc1ccc2c(c1)OCO2)CN1CCC(CO)(CN2CCCC2)CC1 (configuration not stated) -4.78%
Cn1ncc(N2CCC(NC(=O)c3ccsc3)CC2)cc1=O -4.35%
O=C(CC[C@@H]1CNC(=O)[C@@H]2C[C@H](NCc3ccc(F)cc3)CN12)NCc1ccc(F)cc1 2%
COc1ccc(-c2ccnc3nc(CCc4ccccc4)nn23)c(F)c1 1.48%
OCc1ccnc(-c2ccc(-c3ccn[nH]3)cc2)c1 -20.6%
COCCNC(=O)C[C@@H]1C[C@H]2O[C@H](CNC(=O)N3CCOCC3)[C@@H](O)[C@H]2O1 3.61% [at 57.5 µM]
C[C@]1(CO)[C@H]2Cc3sc(NC(=O)c4ccc(F)cc4)nc3[C@@H](CC(=O)Nc3ccccc3)[C@]2(C)CC[C@H]1O -3.79%

4 entries already listed, ordered by molecular weight, falling.
activity, negative = inhibition, inactive:
O=C1C[C@@H]2CCN(C(=O)Nc3ccccc3)C[C@@H]2CCN1CCc1cnc[nH]1 14.6% [at 57.5 µM]
O=C(NCCc1nccc(-c2ccccc2)n1)c1ccc2cccc(F)c2n1 -6.54%
COc1ccc(-c2ccnc3nc(CCc4ccccc4)nn23)c(F)c1 1.48%
COCC1(CNCc2ccc(F)cc2)C[C@@H](O)[C@@H](O)C1 (some centres not stated) -7.25% [at 76.7 µM]
